Reference: US12509422B2, “Bisamide compound and application thereof” (METISA BIOTECHNOLOGY CO., LTD, priority 2019, dated 2025)
Some entries share one result that the patent states for a list of compounds.

Key:
Type in all cases: in vivo
[1] = system: Leucania separata; assay: Insecticidal activity against Leucania separata, airbrush spray on corn leaf sections; conditions: dose 0.05 mg/L, 3 days after the treatment, 3rd instar larvae
[2] = system: Chilo suppressalis; assay: Insecticidal activity against Chilo suppressalis, sprayed Oryza sativa seedlings, stalks fed to larvae; conditions: 3 days after the treatment, 3rd instar larvae
Procedure: The compounds of the invention were determined for the insecticidal activities against several insects. The determination method was as follows:
After being dissolved in a mixed solvent of acetone/methanol (1:1), the test compound was diluted with water containing 0.1% (wt) Tween 80 to the desired concentration.
With Leucania separata, Plutella xylostella, and Chilo suppressalis as targets, airbrush spray method was used for the determination of activity.
Determination method: 1) Preparation of Oryza sativa seedlings: Oryza sativa was cultivated in a constant temperature room (a temperature of 26-28° C., a relative humidity of about 60-80%, and a light illumination of 16hL:8hD) in a small plastic cup with a diameter of 4.5 cm and a height of 4 cm, and when the Oryza sativa grew up to the 4-5 leaf stage, robust and consistent Oryza sativa seedlings were selected for chemical treatment, and 3 repetitions were performed for each treatment. 2) Preparation for test insects: Chilo suppressalis at 3rd instar larvae were raised continuously indoors. 3) The Oryza sativa stems were sprayed and insects were introduced. Spraying was performed uniformly on the whole plant of the Oryza sativa seedlings, with 15 ml of compound solution for each treatment. The blank control was treated first, and then the above operations were repeated in the order of the test concentration from low to high. After the Oryza sativa seedlings were sprayed, they were placed in a cool place to dry the liquid, and about 5 cm of stalks at the base of the stems were cut and fed to the test insects. A glass petri dish with a diameter of 90 mm was placed with filter paper at the bottom of the dish, and then was moisturized by adding water. After that, about 5 rice stalks and 10 larvae were placed in each dish, and the petri dish was sealed with a non-woven fabric and placed in a constant temperature room for cultivation. The number of remaining live insects was investigated 3 days after the treatment.
The compounds 1, 3, 7, 11 of this disclosure and the comparative compounds were selected for a parallel comparison test of the insecticidal activity against Chilo suppressalis (3 days after the treatment), through a same determination method as that described above.

[3] = system: Plutella xylostella; assay: Insecticidal activity against Plutella xylostella, airbrush spray on cabbage leaf discs; conditions: 3 days after the treatment, 3rd instar larvae

N#Cc1ccc(C(=O)N(CC2CC2)c2cccc(C(=O)Nc3c(I)cc(C(F)(C(F)(F)F)C(F)(F)F)cc3C(F)(F)F)c2F)cn1 [Compound 12]
≥ 90%: lethality rate against Leucania separata [1] | lethality rate against Chilo suppressalis ([2]; dose 0.25 mg/L) | lethality rate against Chilo suppressalis ([2]; dose 0.5 mg/L) | lethality rate against Chilo suppressalis ([2]; dose 1 mg/L) | lethality rate against Plutella xylostella ([3]; dose 0.05 mg/L) | lethality rate against Plutella xylostella ([3]; dose 0.5 mg/L)

O=C(Nc1c(Br)cc(C(F)(C(F)(F)F)C(F)(F)F)cc1C(F)(F)F)c1cccc(N(CC2CC2)C(=O)c2ccc(F)nc2)c1F [Compound 3]
≥ 90%: lethality rate against Leucania separata [1] | lethality rate against Chilo suppressalis ([2]; dose 0.25 mg/L) | lethality rate against Chilo suppressalis ([2]; dose 0.5 mg/L) | lethality rate against Chilo suppressalis ([2]; dose 1 mg/L) | lethality rate against Plutella xylostella ([3]; dose 0.05 mg/L) | lethality rate against Plutella xylostella ([3]; dose 0.5 mg/L)

N#Cc1ccc(C(=O)N(CC2CC2)c2cccc(C(=O)Nc3c(Br)cc(C(F)(C(F)(F)F)C(F)(F)F)cc3C(F)(F)F)c2F)cn1 [Compound 11]
≥ 90%: lethality rate against Leucania separata [1] | lethality rate against Chilo suppressalis ([2]; dose 0.25 mg/L) | lethality rate against Chilo suppressalis ([2]; dose 0.5 mg/L) | lethality rate against Chilo suppressalis ([2]; dose 1 mg/L) | lethality rate against Plutella xylostella ([3]; dose 0.05 mg/L) | lethality rate against Plutella xylostella ([3]; dose 0.5 mg/L)
